Patent publication US6673332
Results are given in words; binding and its absence hold for the method and conditions named. For some of these results: Binding seen in cells or lysates may run through a third protein. Some binding calls cover weakened binding; strength is not graded here. Blank lines part the entries; values can stand above or below the substance they belong to.

By UniProt entry, the sequences of proteins in these tests, tags left out. Where a name states a change or a piece, a line headed by the entry shows the natural chain unless it says otherwise. Chains listed by the source or under a name are the forms on record and can include a tag or linker. Residues count along the entry.
UniProt O88447: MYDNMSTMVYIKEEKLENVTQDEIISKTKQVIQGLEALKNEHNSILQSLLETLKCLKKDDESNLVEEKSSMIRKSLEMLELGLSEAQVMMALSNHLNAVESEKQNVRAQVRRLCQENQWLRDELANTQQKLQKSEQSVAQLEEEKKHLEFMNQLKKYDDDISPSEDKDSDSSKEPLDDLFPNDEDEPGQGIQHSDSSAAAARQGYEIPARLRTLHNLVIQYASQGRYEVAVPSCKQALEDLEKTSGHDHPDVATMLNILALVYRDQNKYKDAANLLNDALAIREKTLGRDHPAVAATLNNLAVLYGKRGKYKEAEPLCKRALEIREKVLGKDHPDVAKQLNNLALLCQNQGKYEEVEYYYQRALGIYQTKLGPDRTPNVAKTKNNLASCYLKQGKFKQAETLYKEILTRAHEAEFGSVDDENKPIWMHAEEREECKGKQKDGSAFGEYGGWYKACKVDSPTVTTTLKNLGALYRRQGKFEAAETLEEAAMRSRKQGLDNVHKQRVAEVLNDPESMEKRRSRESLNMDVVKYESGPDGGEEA
GST-KLC1 (glutathione S-transferase fused to kinesin light chain 1, all but the first seven amino acids): residues 8-541 of O88447
GST-CC (GST fusion protein of the N-terminal coiled coil domain of KLC, amino acids 30-200): residues 30-200 of O88447
GST-TPR (GST fusion protein of the TPR domains of KLC1, amino acids 167-541): residues 167-541 of O88447
UniProt O88448: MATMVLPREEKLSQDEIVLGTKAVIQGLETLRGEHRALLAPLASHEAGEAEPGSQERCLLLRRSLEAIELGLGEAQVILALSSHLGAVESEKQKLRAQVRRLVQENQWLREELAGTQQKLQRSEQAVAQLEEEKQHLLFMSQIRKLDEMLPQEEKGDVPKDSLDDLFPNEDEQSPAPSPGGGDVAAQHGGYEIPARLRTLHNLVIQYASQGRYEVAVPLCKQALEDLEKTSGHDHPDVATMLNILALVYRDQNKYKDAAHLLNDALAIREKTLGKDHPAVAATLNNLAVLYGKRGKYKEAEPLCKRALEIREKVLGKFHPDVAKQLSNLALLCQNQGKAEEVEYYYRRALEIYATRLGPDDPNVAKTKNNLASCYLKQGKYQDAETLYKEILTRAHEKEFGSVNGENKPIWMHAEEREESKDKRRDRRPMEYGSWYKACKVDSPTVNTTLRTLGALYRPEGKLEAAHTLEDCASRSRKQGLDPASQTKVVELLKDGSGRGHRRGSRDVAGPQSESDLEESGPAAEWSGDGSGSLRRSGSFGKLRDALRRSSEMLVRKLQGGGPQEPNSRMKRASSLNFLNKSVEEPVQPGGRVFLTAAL
GST-KLC2 (glutathione S-transferase fused to kinesin light chain 2, 591 amino acids of the largest cDNA clone): residues 9-599 of O88448
UniProt P12023, residues 18-770: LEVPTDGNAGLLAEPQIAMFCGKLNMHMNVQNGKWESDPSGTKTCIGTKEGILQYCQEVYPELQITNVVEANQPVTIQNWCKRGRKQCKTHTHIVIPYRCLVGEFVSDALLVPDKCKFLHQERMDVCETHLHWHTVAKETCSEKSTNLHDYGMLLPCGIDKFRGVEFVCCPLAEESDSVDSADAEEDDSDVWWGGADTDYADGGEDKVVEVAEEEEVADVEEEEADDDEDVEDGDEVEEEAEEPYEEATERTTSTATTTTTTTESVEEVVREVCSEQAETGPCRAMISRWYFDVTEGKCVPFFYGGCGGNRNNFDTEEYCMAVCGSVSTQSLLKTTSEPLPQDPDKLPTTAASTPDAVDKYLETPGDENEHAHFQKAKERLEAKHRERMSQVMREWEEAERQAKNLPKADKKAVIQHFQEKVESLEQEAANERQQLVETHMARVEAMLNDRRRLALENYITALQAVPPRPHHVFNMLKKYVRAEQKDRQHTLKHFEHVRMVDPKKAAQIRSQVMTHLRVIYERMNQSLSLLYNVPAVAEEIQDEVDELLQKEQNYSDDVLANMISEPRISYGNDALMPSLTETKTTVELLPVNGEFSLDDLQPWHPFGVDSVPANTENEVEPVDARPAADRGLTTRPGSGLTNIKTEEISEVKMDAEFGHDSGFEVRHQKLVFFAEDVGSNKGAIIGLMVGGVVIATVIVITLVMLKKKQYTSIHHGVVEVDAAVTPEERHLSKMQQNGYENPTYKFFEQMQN
UniProt Q61768, residues 499-783: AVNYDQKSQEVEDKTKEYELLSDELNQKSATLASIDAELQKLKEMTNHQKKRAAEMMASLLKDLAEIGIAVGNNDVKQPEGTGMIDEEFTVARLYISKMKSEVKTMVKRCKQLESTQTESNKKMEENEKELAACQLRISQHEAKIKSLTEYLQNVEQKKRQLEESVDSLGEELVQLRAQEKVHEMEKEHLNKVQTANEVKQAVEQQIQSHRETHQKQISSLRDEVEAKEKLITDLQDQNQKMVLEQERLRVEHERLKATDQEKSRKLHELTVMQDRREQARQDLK

Columns and labels:
[1] = biological target: KLC1 (kinesin light chain 1), endogenous, mouse brain (mouse) (UniProt O88447); experiment: co-immunoprecipitation with KHC antibodies from wild-type and KLC1 mutant mouse brain extracts
[2] = biological target: KLC2 (kinesin light chain 2), endogenous, mouse brain (mouse) (UniProt O88448); experiment: as above
[3] = biological target: KLC2 (kinesin light chain 2), endogenous, mouse brain (mouse) (UniProt O88448); experiment: sucrose gradient sedimentation and co-immunoprecipitation with 63-90 from fraction 11 of KLC1 mutant gradients
[4] = biological target: KLC1 (kinesin light chain 1), endogenous, mouse brain (mouse) (UniProt O88447); experiment: 5-20% sucrose gradient velocity sedimentation of mouse brain membrane proteins, quantitative Western blot (FIG. 2)
[5] = biological target: KLC1 (kinesin light chain 1), endogenous, mouse brain (mouse) (UniProt O88447); experiment: co-immunoprecipitation from wild-type and KLC1 mutant mouse brain extracts with a KLC1-specific antibody, Western blot
[6] = biological target: KLC2 (kinesin light chain 2), endogenous, mouse brain (mouse) (UniProt O88448); experiment: co-immunoprecipitation from wild-type and KLC1 mutant mouse brain extracts with a KLC2-specific antibody, Western blot
[7] = biological target: KLC1 (kinesin light chain 1), endogenous, mouse brain (mouse) (UniProt O88447); experiment: co-immunoprecipitation from sucrose gradient fractions (data not shown); not possible from fraction 8 of KLC1 mutant gradients
[8] = biological target: GST-TPR (GST fusion protein of the TPR domains of KLC1, amino acids 167-541) (UniProt O88447); experiment: GST pull-down, Western blot for GFP
[9] = biological target: GST-KLC1 (glutathione S-transferase fused to kinesin light chain 1, all but the first seven amino acids) (UniProt O88447); experiment: GST pull-down, Western blot (FIG. 5, Panel A)
[10] = biological target: GST-KLC2 (glutathione S-transferase fused to kinesin light chain 2, 591 amino acids of the largest cDNA clone) (UniProt O88448); experiment: GST pull-down, Western blot (FIG. 5, Panel A)
[11] = biological target: GST-TPR (GST fusion protein of the TPR domains of KLC1, amino acids 167-541) (UniProt O88447); experiment: GST pull-down, Western blot (FIG. 5, Panel E)
[12] = biological target: GST-KLC2 (glutathione S-transferase fused to kinesin light chain 2, 591 amino acids of the largest cDNA clone) (UniProt O88448); experiment: GST pull-down of purified proteins, Western blot for GFP
[13] = biological target: GST-KLC1 (glutathione S-transferase fused to kinesin light chain 1, all but the first seven amino acids) (UniProt O88447); experiment: GST pull-down of purified proteins, Western blot for GFP; also found under five buffer conditions including high salt
[14] = biological target: GST-CC (GST fusion protein of the N-terminal coiled coil domain of KLC, amino acids 30-200) (UniProt O88447); experiment: GST pull-down, Western blot for the His tag
[15] = biological target: GST-KLC1 (glutathione S-transferase fused to kinesin light chain 1, all but the first seven amino acids) (UniProt O88447); experiment: GST pull-down of purified proteins, Western blot for the His tag
[16] = biological target: GST-KLC2 (glutathione S-transferase fused to kinesin light chain 2, 591 amino acids of the largest cDNA clone) (UniProt O88448); experiment: as above

binding [1]: binds | binding [2]: binds | binding [3]: binds | binding [4]: binds | binding [5]: binds | binding [6]: binds | binding [7]: binds
Substance: APP (amyloid precursor protein), endogenous, from mouse brain and sciatic nerve extracts (from UniProt P12023 18-770)

binding [8]: binds | binding [9]: binds | binding [10]: binds | binding [11]: binds | binding [12]: binds | binding [13]: binds
Substance: APP-GFP fusion protein (C-terminal 42 amino acids of human APP fused to GFP, from a His-tagged pRSETb-EGFP vector) (from UniProt P05067 729-770; P42212 1-238)

binding [14]: binds | binding [15]: binds | binding [16]: binds
Substance: KIF5B-His fusion protein (amino acids 499-783 of KIF5B, His-tagged, pET-23b) (from UniProt Q61768 499-783)
